Experimental data taken from PubChem BioAssay AID1671190 (National Center for Advancing Translational Sciences (NCATS), 2021).
The campaign covered roughly 580,000 compounds. About 6,100 (1.1%) were called active. The shares of active, inactive and inconclusive entries below differ from those in the screen. Calls come from the whole dose curve; as a rule, active = well fitted inhibition curve with a large enough effect; inconclusive = small, poorly fitted or top-dose-only effect, or another doubt; inactive = no such curve, though single readings can be large or run the other way. Potencies beside an inconclusive call are fits to weak or partial responses and may not hold up.

The chains behind the UniProt entries cited, without tags or fusion partners.
UniProt P18054, whole entry, looked up: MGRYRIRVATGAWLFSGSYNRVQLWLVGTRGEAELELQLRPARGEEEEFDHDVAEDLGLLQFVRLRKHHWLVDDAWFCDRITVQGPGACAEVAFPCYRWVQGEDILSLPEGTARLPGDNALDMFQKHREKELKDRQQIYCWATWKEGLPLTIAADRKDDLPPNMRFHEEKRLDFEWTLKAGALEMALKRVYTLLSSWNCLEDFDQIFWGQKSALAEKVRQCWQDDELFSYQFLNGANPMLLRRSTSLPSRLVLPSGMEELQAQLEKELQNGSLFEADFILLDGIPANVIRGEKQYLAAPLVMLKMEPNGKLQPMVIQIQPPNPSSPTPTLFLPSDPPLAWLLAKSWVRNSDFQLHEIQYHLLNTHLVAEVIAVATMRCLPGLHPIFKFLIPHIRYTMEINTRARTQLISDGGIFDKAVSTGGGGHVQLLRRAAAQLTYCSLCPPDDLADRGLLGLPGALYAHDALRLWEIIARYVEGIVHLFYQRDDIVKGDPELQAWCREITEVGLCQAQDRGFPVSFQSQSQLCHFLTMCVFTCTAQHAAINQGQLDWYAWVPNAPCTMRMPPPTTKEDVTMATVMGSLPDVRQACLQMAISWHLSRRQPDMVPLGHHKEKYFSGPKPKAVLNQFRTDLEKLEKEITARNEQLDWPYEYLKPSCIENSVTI

Target: Polyunsaturated fatty acid lipoxygenase ALOX12 (Homo sapiens) (UniProt P18054)
Test: Primary qHTS assay for inhibitors of human arachidonate 12S-lipoxygenase (ALOX12): Round 2
Details: purified 12hLO, xylenol orange hydroperoxide absorbance; activity change, negative = inhibition: at 108 µM (top of the series) unless noted
Method in brief: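 Purified human 12hLO (150 nM final) in 25 mM Hepes, 0.01% Triton X-100, pH 7.0 was preincubated 15 min at room temperature with compound. Then 40 uM arachidonic acid was added, 30 min. Hydroperoxide was read by Fe-XO absorbance ratio 573/405 nm.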
% is set by controls: 0 for no effect and ±100 for the full control effect; potency is the fitted concentration of half-maximal effect.

| Compound | Potency | activity change, negative = inhibition |
| --- | --- | --- |
| CC(C)c1ccc(C2=NC(c3ccncc3)=Nc3ccc(F)cc3N2)cc1 | inconclusive: 100 µM [inhibitor, partial curve, poor fit] |  |
| CC(=O)C1(C)N(O)C(C)C(c2cccs2)=[N+]1[O-] (centres undefined) |  | inactive: -2.31% |
| COC/C=C/C1=CC2=CC(=O)C(C)(OC(=O)C3CCCC3)C(=O)C2=CO1 (centres undefined) | active: 22.4 µM |  |
| Clc1ccc2nc(-c3ccco3)c(Cc3ccsc3)n2c1 | inconclusive: 44.7 µM [inhibitor, partial curve] |  |
| COc1cc(C2C(C(=O)c3ccco3)=C(O)C(=O)N2c2cc(C)on2)cc(Br)c1O (centres undefined) | inconclusive: 14.1 µM [inhibitor, full curve, poor fit] |  |
| CCOC(=O)c1c(S(=O)(=O)N2CCN(c3cccc(C(F)(F)F)c3)CC2)c(C)n(C)c1C | inconclusive: 2.51 µM [inhibitor, full curve, poor fit] |  |
| CC(C)C(=O)N1N=C(c2ccc(Br)cc2)CC1c1ccc2nccnc2c1 (centres undefined) | inconclusive: 3.55 µM [inhibitor, full curve, poor fit] |  |
| CNC(=O)c1ccc2nc(Cc3ccccc3)oc2c1 | inconclusive: 70.8 µM [inhibitor, partial curve, poor fit] |  |
| Cn1c(=O)c2c(nc(CN3CCOCC3)n2CC(=O)c2ccccc2)n(C)c1=O |  | inactive: 18.4% |
| Cc1nc2ncnn2c(C)c1CCC(=O)Nc1cccc(S(=O)(=O)N2CCOCC2)c1 |  | inactive: -21.7% |
| COc1c(C)cccc1C(=O)Nc1ccc2oc(-c3cncc(Br)c3)nc2c1 | inconclusive: 31.6 µM [inhibitor, single point] |  |
| CN1CC(=O)N(C2CCCNCC2)Cc2c1ncnc2N1CCC(C#N)CC1 (centres undefined) | inconclusive: 5.01 µM [inhibitor, full curve] |  |
| Cc1cccc(NC(=O)CN2C(=O)NC(C)(c3ccc4ccccc4c3)C2=O)n1 (centres undefined) | inconclusive: 28.2 µM [inhibitor, single point] |  |
| COc1cccc(C(=O)C2CCCN(Cc3ccc(OC)c(Cn4cncn4)c3)C2)c1 (centres undefined) |  | inactive: 3.92% |
| Cc1ccccc1NC(=O)/C(C#N)=C/c1ccc(-c2ccc(Cl)c(C(=O)O)c2)o1 |  | inactive: -16.2% |
| CC(C)c1ccc2oc(-c3ccc(Cl)c(NC(=O)Cc4ccccc4)c3)nc2c1 |  | inactive: -13.2% |
| CC(=O)Nc1ccc2c(C(C(=O)O)N3CCN(C(C)=O)CC3)c[nH]c2c1 (centres undefined) | inconclusive: 39.8 µM [inhibitor, partial curve, poor fit] |  |
| Cc1ccc2c(C)c(C(=O)N(Cc3ccncc3)CC3CCCO3)oc2c1C (centres undefined) | inconclusive: 126 µM [inhibitor, single point] |  |
| Clc1ccc(OCCN2CCCCC2)c(Cl)c1 | inconclusive: 0.891 µM [inhibitor, full curve, poor fit] |  |
| C=CCOC(=O)/C(=C/c1cccc2ccccc12)NC(=O)c1ccccc1 |  | inactive: 7.49% |
| COc1cc(OC)c2c(C)c(CC(=O)NCCc3ccc(F)cc3)c(=O)oc2c1 | inconclusive: 89.1 µM [inhibitor, partial curve, poor fit] |  |
| CN(CC(=O)Nc1cccc(F)c1)C(=O)CCc1ncc(-c2ccccc2)o1 |  | inactive: 0.562% |

| Compound | Potency | activity change, negative = inhibition |
| --- | --- | --- |
| CCNC(=O)C1(C)CCCN1Cc1c(F)cccc1F (centres undefined) | inconclusive: 89.1 µM [inhibitor, single point] |  |
| O=C(O)c1c(C(=O)N2N=C3/C(=C/c4ccccc4)CCCC3C2c2ccccc2)cccc1[N+](=O)[O-] (centres undefined) | inconclusive: 89.1 µM [inhibitor, partial curve, poor fit] |  |
| COc1cccc(Oc2coc3cc(OC(=O)c4ccc([N+](=O)[O-])cc4)ccc3c2=O)c1 | inconclusive: 79.4 µM [inhibitor, partial curve, poor fit] |  |
| CCOc1ccc(C(C(=O)NC2CCCCC2)N(C(=O)c2ccccn2)c2cccnc2)cc1 (centres undefined) |  | inactive: -1.19% |
| O=C(/C=C/c1cccc(Cl)c1)Nn1c(-c2cccs2)nc2ccccc2c1=O |  | inactive: -21.8% |
| CCCN(/C=N/c1sc2c(c1C#N)CCCCC2)CCC | inconclusive: 50.1 µM [inhibitor, partial curve, poor fit] |  |
| CCOC(=O)c1c(C)n(CCO)c2ccc(O)cc12 |  | inactive: 20.2% |
| Cc1cc(C)c([S+](=O)([O-])c2nnn3c2nc(N2CCOCC2)c2ccccc23)c(C)c1 |  | inactive: 4.67% [at 6.33 µM] |
| Cc1ccc(S(=O)(=O)Nc2ccc3c(c2)CN(CCc2ccc(F)cc2)C(=O)C(C)O3)cc1F (centres undefined) | active: 28.2 µM |  |
| COc1ccc(-n2c(O)c(/C=N/NS(=O)(=O)c3ccc(C)cc3)c3ccccc3c2=O)cc1OC | inconclusive: 28.2 µM [inhibitor, partial curve] |  |
| CCOC(=O)c1c(NC(=O)COc2cccc3c2CCN(C)C3=O)sc2c1CCC2 | inconclusive: 141 µM [inhibitor, partial curve, poor fit] |  |
| CN(CC(=O)Nc1ccc(N2CCOCC2)cc1)C(=O)CCc1cc(C(C)(C)C)c(O)c(C(C)(C)C)c1 |  | inactive: -11% |
| O=C(NCCc1ccc(Cl)cc1)c1ccncc1 |  | inactive: -23.7% |
| Cc1ccccc1C(CC(=O)NCc1cccnc1)c1ccccc1 (centres undefined) |  | inactive: 12.6% |
| S=C(NCCc1ccccc1)N/N=C/c1cccc(Cl)c1Cl | active: 50.1 µM |  |
| CCc1ccc(-c2csc(Nc3ccc(S(N)(=O)=O)cc3)n2)cc1 | inconclusive: 50.1 µM [inhibitor, partial curve, poor fit] |  |
| Cc1ccccc1C(=O)Nc1cccc(C(=O)N/N=C/c2cc(Cl)cc([N+](=O)[O-])c2O)c1 | inconclusive: 44.7 µM [inhibitor, partial curve, poor fit] |  |
| Cc1ccccc1C(=O)N1CCC(c2nn(-c3ccccc3)c(=O)[nH]2)CC1 |  | inactive: 35% |
| CCCNC(=O)CN1C(=O)c2c(c3ccccc3n2C)C1c1ccc(OC)cc1 (centres undefined) |  | inactive: -13% |
| O=S(=O)(NCc1cc2cc(F)ccc2s1)c1ccc(Br)s1 | inconclusive: 28.2 µM [inhibitor, single point] |  |
| CC(NC(=O)c1ccco1)C(=O)OCC(=O)c1ccc(Cl)s1 (centres undefined) |  | inactive: -20.4% |
| CCC(C)(NCc1ccccc1)c1nnnn1-c1ccccc1C (centres undefined) |  | inconclusive: -36.3% [inhibitor] |

One compound at a time, as listed above.
CCOC(=O)c1c(S(=O)(=O)N2CCN(c3cccc(C(F)(F)F)c3)CC2)c(C)n(C)c1C is listed as Potency: inconclusive: 2.51 µM [inhibitor, full curve, poor fit]
CC(C)c1ccc2oc(-c3ccc(Cl)c(NC(=O)Cc4ccccc4)c3)nc2c1 is listed as activity change, negative = inhibition: inactive: -13.2%
